PubChem BioAssay AID686938, Drosophila RNAi Screening Center | 2013
The screen tested about 23,000 reagents; this is a random part of those that have a named target and a result. In the full data, 75 (0.33%) were called active. 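Raw plate signals without normalisation; calls rest on plate z-scores that were not deposited; ratio present for only 364 wells.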 Names joined by + are all predicted targets of the reagent. No sequences are given here. Not given: the dose of the treatment.

- Test: 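Knock-downs reducing store-operated calcium influx in Drosophila cells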 (primary screen)
- System: Drosophila S2R+ cells
- Reagents: long dsRNA against Drosophila genes, about 0.25 µg dsRNA per well, roughly 10,000 cells
- Duration: 5 days of knock-down before the calcium assay
- Challenge: thapsigargin (SERCA pump blocker) to empty calcium stores; entry signal taken 4 min after adding it
- Measurement: 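Duplicate raw fluo-4 intensities per well from a plate reader, at rest and four minutes after thapsigargin emptied calcium stores; entry-to-rest ratio filled for only some wells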
- Reading the numbers: calcium entry signal: higher = stronger calcium signal after store depletion; entry to resting ratio: higher = more calcium entry relative to resting level; resting calcium signal: higher = higher resting calcium signal
- Active means: 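Called when the plate z-score of the entry-to-rest ratio, mean of duplicates, falls below −3; wells with low overall dye signal (Fmax z below −2) or more than five off-targets excluded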
- Meaning of the calls: active = strongly reduced calcium entry; inactive = no strong reduction

no.	target gene	dsRNA	calcium entry signal, replicate 1 (fluorescence units)	calcium entry signal, replicate 2 (fluorescence units)	entry to resting ratio	resting calcium signal, replicate 1 (fluorescence units)	resting calcium signal, replicate 2 (fluorescence units)	call
1	CG17764	DRSC18135	2.26e7	3.98e7		1.57e7	1.80e7	inactive
2	CG17764	DRSC23055	4.18e7	3.13e7		2.46e7	1.40e7	inactive
3	CG14332	DRSC14811	3.98e7	5.64e7		1.93e7	7.18e7	inactive
4	CG5078	DRSC11762	2.63e7	4.28e7		1.41e7	1.89e7	inactive
5	Lhr (Lethal hybrid rescue)	DRSC06759	3.16e7	2.60e7		1.41e7	1.37e7	inactive
6	Him (Holes in muscle)	DRSC19638	3.34e7	3.05e7		1.70e7	1.40e7	inactive
7	Nhe3 (Na[+]/H[+] hydrogen exchanger 3)	DRSC03380	2.72e7	3.04e7		1.41e7	1.50e7	inactive
8	CG43386	DRSC17980	3.68e7	5.06e7		1.98e7	2.18e7	inactive
9	CG5188	DRSC02826	3.05e7	5.21e7		1.57e7	2.09e7	inactive
10	Gcn5 (Gcn5 acetyltransferase)	DRSC11248	3.55e7	2.93e7		2.90e7	1.51e7	inactive
11	Ccdc114 (Coiled-coil domain containing protein 114)	DRSC15025	2.48e7	5.54e7		1.31e7	7.14e7	inactive
12	CG9649	DRSC16534	3.61e7	3.79e7		1.57e7	1.78e7	inactive
13	Taf10b (TBP-associated factor 10b)	DRSC00792	3.46e7	4.20e7		1.64e7	1.69e7	inactive
14	CG7326	DRSC20037	2.55e7	4.08e7		2.06e7	1.61e7	inactive
15	nanos	DRSC17018	3.65e7	4.37e7		4.81e7	1.90e7	inactive
16	Elovl7 (ELOVL fatty acid elongase 7)	DRSC15452	5.10e7	3.28e7		2.41e7	1.57e7	inactive
17	Elovl7 (ELOVL fatty acid elongase 7)	DRSC21570	4.14e7	2.69e7		2.46e7	1.42e7	inactive
18	CG11811	DRSC09862	2.27e7	3.28e7		1.24e7	1.50e7	inactive
19	CG6426	DRSC06985	3.17e7	2.78e7		1.46e7	1.36e7	inactive
20	nkt (noktochor)	DRSC10144	3.25e7	5.07e7		1.69e7	2.05e7	inactive
21	Ostgamma (Oligosaccharide transferase gamma subunit)	DRSC03074	5.17e7			2.71e7		inactive
22	CG12546 + CG14452	DRSC11709	2.08e7	2.97e7		1.01e7	1.43e7	inactive
23	CG7484	DRSC10853	3.92e7	5.28e7		1.91e7	2.18e7	inactive
24	su(sable) (suppressor of sable)	DRSC18839	2.68e7	4.30e7	2	1.36e7	1.77e7	inactive
25	Pkc98E (Protein C kinase 98E)	DRSC16791	2.90e7	3.19e7		1.32e7	1.49e7	inactive
26	CG43349	DRSC00039	3.14e7	4.21e7		1.69e7	1.93e7	inactive
27	Prp6 (pre-mRNA processing factor 6)	DRSC10724	3.77e7	5.16e7		1.75e7	2.38e7	inactive
28	Prp6 (pre-mRNA processing factor 6)	DRSC21773	3.68e7	3.66e7		2.36e7	1.72e7	inactive
29	Rrp46	DRSC15537	2.38e7	2.29e7		1.45e7	1.36e7	inactive
30	CG42564	DRSC12518	2.89e7	2.44e7		1.44e7	1.31e7	inactive
31	CG11123	DRSC06040	5.02e7	4.62e7		2.35e7	1.93e7	inactive
32	L (Lobe)	DRSC06666	2.50e7	2.83e7		1.27e7	1.30e7	inactive
33	L (Lobe)	DRSC06668	2.47e7	3.35e7		1.34e7	1.43e7	inactive
34	CG16978	DRSC02553	4.19e7	3.25e7		2.02e7	1.45e7	inactive
35	CG11777	DRSC06081	4.02e7	3.78e7		1.80e7	1.72e7	inactive
36	CG15728	DRSC19694	2.80e7	4.05e7		1.44e7	1.84e7	inactive
37	CG15728	DRSC22868	1.85e7	3.47e7		1.06e7	1.49e7	inactive

Next part; the last 4 above are carried over.
no.	target gene	dsRNA	calcium entry signal, replicate 1 (fluorescence units)	calcium entry signal, replicate 2 (fluorescence units)	entry to resting ratio	resting calcium signal, replicate 1 (fluorescence units)	resting calcium signal, replicate 2 (fluorescence units)	call
34	CG16978	DRSC02553	4.19e7	3.25e7		2.02e7	1.45e7	inactive
35	CG11777	DRSC06081	4.02e7	3.78e7		1.80e7	1.72e7	inactive
36	CG15728	DRSC19694	2.80e7	4.05e7		1.44e7	1.84e7	inactive
37	CG15728	DRSC22868	1.85e7	3.47e7		1.06e7	1.49e7	inactive
38	alphaCOP (Coat Protein (coatomer) alpha)	DRSC08706	2.29e7	2.46e7		1.67e7	1.74e7	inactive
39	CG17571	DRSC01768	2.73e7	3.74e7		1.26e7	1.58e7	inactive
40	CG17571	DRSC03755	4.29e7	4.87e7		2.03e7	2.16e7	inactive
41	CG31861	DRSC21665	3.02e7	4.14e7		1.75e7	1.96e7	inactive
42	Unc-76 (Uncoordinated 76)	DRSC18193	4.13e7	5.14e7	2	2.03e7	2.15e7	inactive
43	Unc-76 (Uncoordinated 76)	DRSC18560	4.15e7	6.46e7	2.1	2.02e7	2.41e7	inactive
44	CG31802	DRSC02459	5.41e7	3.49e7		2.27e7	1.56e7	inactive
45	ato (atonal)	DRSC16904	3.55e7	5.03e7		1.88e7	2.32e7	inactive
46	CG31337	DRSC12981	3.35e7	3.61e7		1.85e7	1.83e7	inactive
47	CG4036	DRSC02735	5.00e7			2.30e7		inactive
48	CG15890	DRSC19737	3.20e7	3.45e7		1.64e7	1.74e7	inactive
49	Mdr50 (Multi drug resistance 50)	DRSC07467	3.89e7	3.62e7		2.14e7	1.68e7	inactive
50	CG10341	DRSC02040	3.92e7			2.09e7		inactive
51	Arp6 (Actin-related protein 6)	DRSC19326	4.27e7	4.27e7		2.13e7	1.98e7	inactive
52	CG7565	DRSC10881	5.06e7	3.91e7		3.25e7	1.57e7	inactive
53	CG8065	DRSC10959	3.13e7	3.77e7		1.56e7	1.76e7	inactive
54	Ir60e (Ionotropic receptor 60e)	DRSC04227	3.83e7	4.77e7		1.94e7	2.23e7	inactive
55	CG31743 + CG34313	DRSC02781	4.61e7			2.26e7		inactive
56	CG31743 + CG34313	DRSC02782	3.67e7	2.78e7		1.74e7	1.20e7	inactive
57	CG31549	DRSC21688	4.06e7	3.27e7		2.31e7	1.67e7	inactive
58	mspo (M-spondin)	DRSC07652	2.77e7	4.76e7		1.47e7	1.92e7	inactive
